The list shows a part of the results.
Tests used:
Assay in all cases: log2 fold change, soluble protein after heating vs DMSO (PISA); higher = thermal stabilisation; K562 cells, 10 uM, 30 min; active = over 0.2 and 3.5 SD of the protein, either way, in both replicates (recomputed)
erlotinib = compound: C#Cc1cccc(Nc2ncnc3cc(OCCOC)c(OCCOC)cc23)c1 [erlotinib]
In short: (§1)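 For each measurement, 10 μM compound was applied for 30 min to K562 cells at 2×10^6 cells/mL. Aliquots were heated for 3 min across 48°C-58°C, pooled, and extracted in PBS with 0.5% NP-40 at 4°C; the supernatant after 21,000xg for 90 min was soluble protein. This was quantified by TMTpro 16plex LC-MS/MS with channel sums equalised, and thermal stability was reported relative to control samples from duplicates, on a log2 fold-change scale.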

Chains of the proteins cited; added tags and fusions are not shown. Lines headed by an entry give the natural chain unless they say otherwise; changes in a name come on top.
UniProt Q13619, whole entry, looked up: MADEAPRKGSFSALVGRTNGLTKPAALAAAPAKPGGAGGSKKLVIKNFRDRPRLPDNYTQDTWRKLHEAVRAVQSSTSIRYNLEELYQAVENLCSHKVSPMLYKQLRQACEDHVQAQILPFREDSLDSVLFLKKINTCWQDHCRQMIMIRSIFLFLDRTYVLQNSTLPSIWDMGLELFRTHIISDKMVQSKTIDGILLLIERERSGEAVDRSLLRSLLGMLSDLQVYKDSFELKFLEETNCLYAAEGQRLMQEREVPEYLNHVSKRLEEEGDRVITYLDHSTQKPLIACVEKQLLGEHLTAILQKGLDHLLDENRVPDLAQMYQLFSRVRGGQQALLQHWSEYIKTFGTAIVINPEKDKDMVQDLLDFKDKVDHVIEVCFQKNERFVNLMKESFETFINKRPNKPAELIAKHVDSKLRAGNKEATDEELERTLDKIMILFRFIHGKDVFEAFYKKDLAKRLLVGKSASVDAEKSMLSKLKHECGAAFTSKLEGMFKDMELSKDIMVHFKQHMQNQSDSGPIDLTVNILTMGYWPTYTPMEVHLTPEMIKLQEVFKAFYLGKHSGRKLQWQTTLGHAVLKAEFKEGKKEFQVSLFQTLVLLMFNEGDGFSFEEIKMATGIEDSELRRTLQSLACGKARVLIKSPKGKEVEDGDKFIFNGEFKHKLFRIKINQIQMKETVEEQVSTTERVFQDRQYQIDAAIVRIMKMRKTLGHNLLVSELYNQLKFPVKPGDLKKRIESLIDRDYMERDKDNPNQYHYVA
UniProt Q01459: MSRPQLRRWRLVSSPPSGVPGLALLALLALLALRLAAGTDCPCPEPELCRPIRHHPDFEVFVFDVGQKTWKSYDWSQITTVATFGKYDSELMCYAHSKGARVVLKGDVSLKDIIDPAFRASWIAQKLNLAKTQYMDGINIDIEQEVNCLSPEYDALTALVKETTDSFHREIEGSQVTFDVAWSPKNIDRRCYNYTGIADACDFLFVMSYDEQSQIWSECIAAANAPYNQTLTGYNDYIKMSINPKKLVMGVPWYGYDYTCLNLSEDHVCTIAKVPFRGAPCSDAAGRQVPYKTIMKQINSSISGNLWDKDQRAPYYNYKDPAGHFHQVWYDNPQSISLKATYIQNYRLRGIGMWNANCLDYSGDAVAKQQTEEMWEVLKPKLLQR
UniProt O60888: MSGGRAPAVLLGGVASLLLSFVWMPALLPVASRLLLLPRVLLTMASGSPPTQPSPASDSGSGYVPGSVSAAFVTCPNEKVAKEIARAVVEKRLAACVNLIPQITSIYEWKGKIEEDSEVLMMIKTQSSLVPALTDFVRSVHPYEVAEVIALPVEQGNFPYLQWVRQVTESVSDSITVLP
UniProt P09668: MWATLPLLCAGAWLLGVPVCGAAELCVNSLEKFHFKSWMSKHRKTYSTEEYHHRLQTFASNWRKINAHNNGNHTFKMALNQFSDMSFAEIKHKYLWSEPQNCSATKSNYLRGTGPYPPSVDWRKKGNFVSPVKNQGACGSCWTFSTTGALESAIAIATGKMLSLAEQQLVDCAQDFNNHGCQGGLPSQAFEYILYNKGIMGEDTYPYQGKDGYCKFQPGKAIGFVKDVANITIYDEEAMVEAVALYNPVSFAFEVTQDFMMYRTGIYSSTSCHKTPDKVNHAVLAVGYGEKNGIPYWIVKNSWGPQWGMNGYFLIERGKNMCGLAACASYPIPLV
UniProt P08574: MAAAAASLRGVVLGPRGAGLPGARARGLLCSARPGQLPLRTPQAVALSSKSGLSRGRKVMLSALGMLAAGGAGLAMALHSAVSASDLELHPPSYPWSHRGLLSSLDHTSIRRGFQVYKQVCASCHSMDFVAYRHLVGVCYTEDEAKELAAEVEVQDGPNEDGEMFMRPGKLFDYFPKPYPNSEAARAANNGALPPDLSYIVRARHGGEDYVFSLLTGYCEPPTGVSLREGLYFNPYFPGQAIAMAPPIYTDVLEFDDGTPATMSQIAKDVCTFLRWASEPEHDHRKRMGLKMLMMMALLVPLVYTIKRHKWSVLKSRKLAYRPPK
UniProt Q13948: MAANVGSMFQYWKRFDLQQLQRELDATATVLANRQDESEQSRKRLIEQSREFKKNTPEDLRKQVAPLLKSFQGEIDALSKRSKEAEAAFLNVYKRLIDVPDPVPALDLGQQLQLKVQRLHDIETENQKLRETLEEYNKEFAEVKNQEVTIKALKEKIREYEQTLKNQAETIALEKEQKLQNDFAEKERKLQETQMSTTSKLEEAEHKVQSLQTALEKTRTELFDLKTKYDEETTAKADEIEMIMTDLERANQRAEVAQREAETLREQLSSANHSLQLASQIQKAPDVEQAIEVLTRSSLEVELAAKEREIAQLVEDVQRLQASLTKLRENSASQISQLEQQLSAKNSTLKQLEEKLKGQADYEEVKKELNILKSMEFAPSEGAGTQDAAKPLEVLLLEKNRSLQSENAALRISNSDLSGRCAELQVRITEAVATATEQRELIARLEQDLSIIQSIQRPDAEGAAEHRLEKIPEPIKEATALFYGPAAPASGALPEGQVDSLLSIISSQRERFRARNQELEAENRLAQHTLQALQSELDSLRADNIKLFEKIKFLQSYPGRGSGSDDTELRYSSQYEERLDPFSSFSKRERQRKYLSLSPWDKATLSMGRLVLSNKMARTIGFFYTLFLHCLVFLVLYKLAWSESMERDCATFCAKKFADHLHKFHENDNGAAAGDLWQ
UniProt P17812: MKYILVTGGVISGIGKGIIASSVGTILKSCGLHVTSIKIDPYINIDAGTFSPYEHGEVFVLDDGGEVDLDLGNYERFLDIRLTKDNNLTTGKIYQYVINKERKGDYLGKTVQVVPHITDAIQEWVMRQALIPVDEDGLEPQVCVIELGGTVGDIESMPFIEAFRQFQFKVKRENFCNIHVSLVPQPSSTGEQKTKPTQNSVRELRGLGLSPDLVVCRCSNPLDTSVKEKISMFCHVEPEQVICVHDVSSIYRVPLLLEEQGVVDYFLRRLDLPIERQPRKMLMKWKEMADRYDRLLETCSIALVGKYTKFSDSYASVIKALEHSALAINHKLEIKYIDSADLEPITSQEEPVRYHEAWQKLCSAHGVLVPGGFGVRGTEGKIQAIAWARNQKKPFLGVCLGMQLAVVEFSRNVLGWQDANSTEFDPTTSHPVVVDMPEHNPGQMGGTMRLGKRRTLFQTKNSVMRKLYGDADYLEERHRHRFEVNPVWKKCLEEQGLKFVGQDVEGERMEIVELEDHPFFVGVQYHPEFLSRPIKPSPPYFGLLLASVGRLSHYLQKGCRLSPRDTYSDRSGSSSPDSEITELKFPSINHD
UniProt P99999: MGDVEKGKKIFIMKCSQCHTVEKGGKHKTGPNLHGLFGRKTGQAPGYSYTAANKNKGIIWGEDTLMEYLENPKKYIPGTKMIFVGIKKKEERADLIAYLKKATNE
UniProt P35221: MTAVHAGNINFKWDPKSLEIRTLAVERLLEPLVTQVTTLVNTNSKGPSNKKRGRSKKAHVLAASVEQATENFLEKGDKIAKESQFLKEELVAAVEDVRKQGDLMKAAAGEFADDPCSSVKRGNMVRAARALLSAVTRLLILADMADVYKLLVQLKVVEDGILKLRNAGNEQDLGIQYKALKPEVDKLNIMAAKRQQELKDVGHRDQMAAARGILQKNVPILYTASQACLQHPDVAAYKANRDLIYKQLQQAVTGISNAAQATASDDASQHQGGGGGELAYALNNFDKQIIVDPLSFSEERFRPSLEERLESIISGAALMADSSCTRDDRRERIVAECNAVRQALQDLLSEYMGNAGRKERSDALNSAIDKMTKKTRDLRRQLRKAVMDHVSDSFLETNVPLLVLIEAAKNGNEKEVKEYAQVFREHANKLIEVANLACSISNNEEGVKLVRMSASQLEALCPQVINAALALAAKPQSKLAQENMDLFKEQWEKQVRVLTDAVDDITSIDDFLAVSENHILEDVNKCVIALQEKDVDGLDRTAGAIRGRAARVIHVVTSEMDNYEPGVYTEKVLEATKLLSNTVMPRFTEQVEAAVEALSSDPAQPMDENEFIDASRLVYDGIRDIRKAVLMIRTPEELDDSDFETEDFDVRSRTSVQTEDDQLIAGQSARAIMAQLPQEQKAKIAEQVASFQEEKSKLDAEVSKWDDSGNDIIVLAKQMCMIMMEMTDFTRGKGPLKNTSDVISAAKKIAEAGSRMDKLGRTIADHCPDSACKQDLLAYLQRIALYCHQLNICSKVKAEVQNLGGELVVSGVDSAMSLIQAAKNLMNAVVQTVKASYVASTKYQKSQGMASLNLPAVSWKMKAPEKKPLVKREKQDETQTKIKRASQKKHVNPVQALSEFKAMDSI
UniProt Q9H467: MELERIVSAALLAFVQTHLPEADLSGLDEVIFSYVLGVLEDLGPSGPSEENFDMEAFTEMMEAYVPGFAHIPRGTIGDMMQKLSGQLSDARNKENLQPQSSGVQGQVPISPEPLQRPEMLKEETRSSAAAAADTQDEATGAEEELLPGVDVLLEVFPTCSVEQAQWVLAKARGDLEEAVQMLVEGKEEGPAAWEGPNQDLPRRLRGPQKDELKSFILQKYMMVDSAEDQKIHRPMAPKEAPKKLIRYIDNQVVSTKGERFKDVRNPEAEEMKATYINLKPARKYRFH
UniProt Q6PI48: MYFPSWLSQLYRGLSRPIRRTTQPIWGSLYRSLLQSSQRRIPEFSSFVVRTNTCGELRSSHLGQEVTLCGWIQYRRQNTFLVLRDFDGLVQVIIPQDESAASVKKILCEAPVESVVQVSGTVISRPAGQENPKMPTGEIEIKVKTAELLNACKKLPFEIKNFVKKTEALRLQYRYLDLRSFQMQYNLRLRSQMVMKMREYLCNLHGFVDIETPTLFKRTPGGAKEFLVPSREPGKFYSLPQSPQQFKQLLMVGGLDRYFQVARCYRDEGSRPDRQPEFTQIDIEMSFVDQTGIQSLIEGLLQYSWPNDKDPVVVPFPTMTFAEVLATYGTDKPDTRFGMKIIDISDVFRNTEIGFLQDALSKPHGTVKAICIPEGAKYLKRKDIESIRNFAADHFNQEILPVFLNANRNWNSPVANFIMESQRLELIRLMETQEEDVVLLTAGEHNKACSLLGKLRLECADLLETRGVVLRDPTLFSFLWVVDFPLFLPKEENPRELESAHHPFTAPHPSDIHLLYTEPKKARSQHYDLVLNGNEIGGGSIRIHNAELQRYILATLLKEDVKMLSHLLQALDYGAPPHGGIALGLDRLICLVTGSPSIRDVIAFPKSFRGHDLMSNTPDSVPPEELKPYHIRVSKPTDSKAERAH
UniProt P07108: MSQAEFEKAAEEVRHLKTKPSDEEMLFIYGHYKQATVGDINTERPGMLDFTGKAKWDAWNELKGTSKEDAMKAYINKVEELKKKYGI
UniProt Q9NTM9: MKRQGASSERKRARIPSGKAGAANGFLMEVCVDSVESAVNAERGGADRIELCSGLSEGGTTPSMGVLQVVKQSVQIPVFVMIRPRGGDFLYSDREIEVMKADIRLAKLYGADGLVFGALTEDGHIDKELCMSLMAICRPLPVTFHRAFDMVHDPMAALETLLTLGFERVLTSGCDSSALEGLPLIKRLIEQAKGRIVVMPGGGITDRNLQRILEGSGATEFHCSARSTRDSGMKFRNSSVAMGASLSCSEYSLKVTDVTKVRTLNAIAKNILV
UniProt O60716: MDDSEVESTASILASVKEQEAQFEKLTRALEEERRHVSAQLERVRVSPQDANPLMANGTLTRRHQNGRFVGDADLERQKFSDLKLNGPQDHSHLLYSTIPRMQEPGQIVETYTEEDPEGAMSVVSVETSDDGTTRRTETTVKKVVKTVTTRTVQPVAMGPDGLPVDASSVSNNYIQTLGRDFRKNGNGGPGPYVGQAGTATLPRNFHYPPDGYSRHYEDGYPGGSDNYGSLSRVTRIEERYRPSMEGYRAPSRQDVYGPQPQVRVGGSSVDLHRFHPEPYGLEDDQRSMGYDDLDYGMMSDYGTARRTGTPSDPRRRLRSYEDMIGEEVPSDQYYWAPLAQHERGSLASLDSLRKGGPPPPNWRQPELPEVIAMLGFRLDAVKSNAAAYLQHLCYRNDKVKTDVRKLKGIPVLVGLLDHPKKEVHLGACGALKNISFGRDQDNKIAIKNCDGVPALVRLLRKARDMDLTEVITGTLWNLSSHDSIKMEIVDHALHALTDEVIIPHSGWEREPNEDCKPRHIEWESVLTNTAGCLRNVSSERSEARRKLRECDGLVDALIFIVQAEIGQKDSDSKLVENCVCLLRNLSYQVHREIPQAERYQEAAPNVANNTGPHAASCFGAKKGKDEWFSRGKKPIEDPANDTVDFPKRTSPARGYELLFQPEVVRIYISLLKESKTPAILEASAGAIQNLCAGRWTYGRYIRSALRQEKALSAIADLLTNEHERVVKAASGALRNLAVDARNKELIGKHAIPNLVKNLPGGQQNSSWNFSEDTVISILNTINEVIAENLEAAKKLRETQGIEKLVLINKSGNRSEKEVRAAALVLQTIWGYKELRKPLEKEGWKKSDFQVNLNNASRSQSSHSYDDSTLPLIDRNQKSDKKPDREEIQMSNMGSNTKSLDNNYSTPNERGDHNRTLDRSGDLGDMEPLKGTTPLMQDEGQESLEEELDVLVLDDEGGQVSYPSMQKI

[1] = compound: C/C(=N\NC(=O)C1=CC(=CC=C1)S(=O)(=O)N2CCOCC2)/C3=C(C=CC(=C3)Cl)O
In short: as §1

[2] = compound: C1=CC(=C(C=C1Cl)C2=NC3=NC=CN=C3C(=N2)NC4=CC=NC=C4)F
In short: as §1

[3] = compound: C1=CC(=CC=C1C2=NC3=C(N2)C=C(C=C3)C(=O)N)OC4=CC=C(C=C4)Cl
In short: as §1

[4] = compound: C1=CC2=C(C=CC(=C2)/C=C\3/C(=O)NC(=NCC4=CC=CS4)S3)N=C1
In short: as §1

[5] = compound: C1=CC2=NC=CN=C2C=C1/C=C/3\C(=O)NC(=O)S3
In short: as §1

[6] = compound: C1=CC=C(C=C1)C2=NC(=C(N2)C3=CC=NC=C3)C4=CC(=C(C=C4)Cl)O
In short: as §1

[7] = compound: C1=CC=C2C(=C1)C3=NNC4=CC=CC(=C43)C2=O
In short: as §1

[8] = compound: C1CCN(C1)C(=O)NC2=CC=CC(=C2)NC3=NC=C(C(=N3)NCCC4=CN=CN4)Br
In short: as §1

[9] = compound: C1CN(CCC1(CC2=CC=C(C=C2)Cl)N)C3=NC=NC4=C3C=CN4
In short: as §1

Measured: log2 fold change

CUL4A (UniProt Q13619)
inactive: erlotinib 0.014 | [1] 0.031 | [2] 0.044 | [3] -0.016 | [4] 0.05 | [5] -0.01 | [6] 0.029 | [7] -0.007 | [8] -0.009 | [9] 0.024

CTBS (UniProt Q01459)
inactive: erlotinib 0.037 | [1] -0.008 | [2] -0.1 | [3] -0.023 | [4] 0.039 | [5] 0.013 | [6] -0.089 | [7] -0.002 | [8] -0.083 | [9] 0.048

CUTA isoform 2 (UniProt O60888)
inactive: erlotinib -0.01 | [1] -0.066 | [2] 0 | [3] 0.033 | [4] 0 | [5] 0.003 | [6] 0.091 | [7] -0.054 | [8] -0.1 | [9] -0.105

DCP1A (UniProt Q9NPI6)
inactive: erlotinib 0.008 | [1] 0.019 | [2] -0.036 | [3] 0.002 | [4] 0.048 | [5] 0.022 | [6] 0.032 | [7] 0.093 | [8] -0.026 | [9] -0.22

DBN1 isoform 3 (UniProt Q16643)
inactive: erlotinib -0.095 | [1] -0.047 | [2] -0.028 | [3] 0.039 | [4] -0.074 | [5] 0.02 | [6] 0.021 | [7] -0.029 | [8] 0.089 | [9] 0.041

CTSH (UniProt P09668)
inactive: erlotinib 0.015 | [1] -0.054 | [2] 0.052 | [3] 0 | [4] -0.062 | [5] 0.048 | [6] 0.022 | [7] -0.011 | [8] 0.047 | [9] 0.057

DCTD isoform 2 (UniProt P32321)
inactive: erlotinib -0.065 | [1] 0.001 | [2] 0.016 | [3] 0.038 | [4] 0.02 | [5] 0.021 | [6] 0.013 | [7] -0.004 | [8] -0.05 | [9] 0.041

DAGLB (UniProt Q8NCG7)
inactive: erlotinib -0.045 | [1] 0.051 | [2] -0.127 | [3] 0.012 | [4] 0.059 | [5] 0.01 | [6] 0.042 | [7] -0.034 | [8] 0.002 | [9] 0.031

CYC1 (UniProt P08574)
inactive: erlotinib -0.036 | [1] 0.048 | [2] 0.023 | [3] 0.042 | [4] 0.026 | [5] 0.023 | [6] -0.007 | [7] -0.003 | [8] 0.013 | [9] -0.004

CUL4B (UniProt K4DI93)
inactive: erlotinib 0.018 | [1] 0.038 | [2] 0.044 | [3] -0.009 | [4] 0.009 | [5] -0.002 | [6] 0.055 | [7] -0.006 | [8] -0.017 | [9] 0.033

CTU1 (UniProt Q7Z7A3)
inactive: erlotinib 0.05 | [1] -0.01 | [2] 0.079 | [3] 0.047 | [4] 0.079 | [5] 0.011 | [6] 0.04 | [7] 0.042 | [8] 0.032 | [9] 0.008

DCAF6 isoform 3 (UniProt Q58WW2)
inactive: erlotinib 0.035 | [1] 0 | [2] 0.035 | [3] 0.014 | [4] 0.007 | [5] 0.045 | [6] 0.008 | [7] -0.036 | [8] 0.042 | [9] 0.055

Taken from the entries so far (two entries):
CYC1 (UniProt P08574)
inactive: erlotinib -0.036 | [1] 0.048 | [2] 0.023 | [3] 0.042 | [4] 0.026 | [5] 0.023 | [6] -0.007 | [7] -0.003 | [8] 0.013 | [9] -0.004

CUL4B (UniProt K4DI93)
inactive: erlotinib 0.018 | [1] 0.038 | [2] 0.044 | [3] -0.009 | [4] 0.009 | [5] -0.002 | [6] 0.055 | [7] -0.006 | [8] -0.017 | [9] 0.033

Continuation:

CTNNA2 (UniProt P26232)
inactive: erlotinib -0.041 | [1] 0.083 | [2] 0.038 | [3] 0.025 | [4] 0 | [5] -0.026 | [6] -0.045 | [7] 0.033 | [8] 0.055 | [9] -0.013

CUX1 isoform 2 (UniProt Q13948)
inactive: erlotinib -0.025 | [1] 0.017 | [2] 0.012 | [3] 0.036 | [4] 0.014 | [5] -0.031 | [6] -0.043 | [7] 0.009 | [8] -0.009 | [9] -0.031

CTPS1 (UniProt P17812)
inactive: erlotinib 0.006 | [1] 0.006 | [2] 0.072 | [3] 0.007 | [4] 0.005 | [5] 0.019 | [6] -0.024 | [7] -0.013 | [8] 0.02 | [9] 0.05

CSTF1 (UniProt Q05048)
inactive: erlotinib -0.03 | [1] -0.001 | [2] 0 | [3] 0.037 | [4] 0.002 | [5] 0.035 | [6] -0.073 | [7] 0.015 | [8] 0.014 | [9] 0.006

CTBP1 (UniProt Q13363)
inactive: erlotinib 0.014 | [1] -0.02 | [2] 0.008 | [3] 0.021 | [4] 0.02 | [5] -0.007 | [6] -0.007 | [7] 0.024 | [8] -0.012 | [9] 0.057

CT47A1 (UniProt Q5JQC4)
inactive: erlotinib 0.071 | [1] 0.087 | [2] 0.013 | [3] -0.05 | [4] -0.034 | [5] 0.016 | [6] -0.142 | [7] -0.08 | [8] 0.064 | [9] -0.017

CUX1 isoform 3 (UniProt P39880)
inactive: erlotinib 0.013 | [1] 0 | [2] 0.034 | [3] -0.015 | [4] -0.008 | [5] 0.11 | [6] -0.074 | [7] 0.01 | [8] -0.003 | [9] 0.092

CYB5B, A0A499FJ32
inactive: erlotinib -0.039 | [1] -0.079 | [2] 0.002 | [3] 0.024 | [4] 0.099 | [5] -0.009 | [6] 0.003 | [7] -0.065 | [8] -0.042 | [9] 0.049

CYCS (UniProt P99999)
inactive: erlotinib -0.03 | [1] 0.015 | [2] -0.007 | [3] 0.026 | [4] -0.002 | [5] -0.014 | [6] -0.044 | [7] 0 | [8] 0.025 | [9] 0.025

CTNNA1 isoform 2 (UniProt P35221)
inactive: erlotinib -0.024 | [1] 0.01 | [2] 0.047 | [3] 0.017 | [4] 0.017 | [5] -0.001 | [6] 0.019 | [7] -0.004 | [8] -0.025 | [9] 0.048

CTSC (UniProt P53634)
inactive: erlotinib -0.002 | [1] 0.016 | [2] 0.022 | [3] -0.031 | [4] 0.014 | [5] 0.004 | [6] 0.028 | [7] 0.009 | [8] -0.02 | [9] 0.138

CUEDC2 (UniProt Q9H467)
inactive: erlotinib 0.016 | [1] -0.023 | [2] 0.047 | [3] 0.023 | [4] -0.021 | [5] 0.117 | [6] -0.074 | [7] 0.008 | [8] -0.071 | [9] -0.006

DARS2 (UniProt Q6PI48)
inactive: erlotinib -0.008 | [1] -0.017 | [2] 0.026 | [3] 0.034 | [4] -0.031 | [5] 0.055 | [6] 0.014 | [7] -0.021 | [8] 0.014 | [9] -0.021

CTU2 (UniProt Q2VPK5)
inactive: erlotinib 0.024 | [1] 0.017 | [2] 0.004 | [3] 0.03 | [4] 0.022 | [5] 0.008 | [6] -0.008 | [7] 0.011 | [8] 0.013 | [9] 0.021

CYB5A (UniProt P00167)
inactive: erlotinib 0.03 | [1] 0.033 | [2] -0.019 | [3] 0.024 | [4] 0.071 | [5] 0.105 | [6] 0.149 | [7] 0.033

DBI isoform 5 (UniProt P07108)
inactive: erlotinib -0.038 | [1] -0.035 | [2] 0.187 | [3] -0.005 | [4] 0.051 | [5] 0.002 | [6] -0.023 | [7] 0.023 | [8] 0.003 | [9] -0.01

CUTC (UniProt Q9NTM9)
inactive: erlotinib -0.053 | [1] -0.013 | [2] -0.04 | [3] 0.033 | [4] 0.115 | [5] -0.022 | [6] -0.01 | [7] -0.063 | [8] -0.03 | [9] 0.047

CTNND1 (UniProt O60716)
inactive: erlotinib -0.029 | [1] -0.037 | [2] -0.332 | [3] -0.104 | [4] -0.04 | [5] -0.003 | [6] 0.006 | [7] -0.027 | [8] 0.004 | [9] -0.094

— the supplement of paper PMC10849652
